Earlier results in US20200131144A1, “AMINE OR (THIO)AMIDE CONTAINING LXR MODULATORS” (Phenex-FXR GmbH, priority 2017, published 2020).
Some entries share one result that the patent states for a list of compounds.

Tested on: LXR
Settings: cited from earlier work

Compound: Fc1ccc(CN(Cc2ccccc2)Cc2ccc(-c3ccccc3)cc2)c(Cl)c1 [Example A1]
- LXR affinity pIC50: < 5.0

Compound: O=C(c1ccccc1)N(Cc1ccc(-c2ccccc2)cc1)Cc1ccc(F)cc1Cl [Example A2]
- LXR affinity pIC50: < 5.0
